Test results: patent US8664276B2, “Stilbene analogs and methods of treating cancer” (University of Kentucky Research Foundation, priority 2011, dated 2014)
At least one structure is not confirmed: it was looked up by name or label, or the drawing left a doubt.

Experiments:
LS174 CRC cells = test: CRC cell proliferation assay (Vi-Cell); assay type: cell-based
Method: (§1) Luciferase and cell proliferation assay. HEK293T cells were transiently transfected in a 12-well plate with 0.2 μg of the Super8xTOPFlash reporter and 0.05 μg of Renilla luciferase reporter. Culture medium was changed after 12 h. After 6 h, cells were treated with DMSO or Wnt inhibitors for 12 h, and then treated with 25 mM LiCl or Wnt conditioned medium. After 12 h, cells were harvested and luciferase activity measured by Dual-luciferase Reporter Assay System (Promega, Madison Wis.). All conditions were done in triplicate and each experiment was carried out at least two times. For cell proliferation assay, CRC cells were treated with DMSO or inhibitors for 2d and 4d. The cell numbers and viability were analyzed by Vi-Cell Cell Viability Analyzer.
Western blot and cell proliferation assay. The activity of fluorinated N,N-dialkylaminostilbenes (FIDAS or FIDAS agents) on Wnt signaling activity in cancer cells were analyzed by Western blot with antibodies against Wnt target genes, such as c-Myc, Axin2. The effects of FlDAS agents on cancer cell growth were analyzed using Cell Viability Analyzer (Beckman Coulter, Vi-Cell XR). These assays have been described previously (see Zhang et al., J. of Med. Chem. 54, 1288-1297 (2011)).

Wnt signaling = test: TopFlash luciferase reporter assay in HEK293T cells; assay type: cell-based
Method: as §1, with “Analyzer. To identify Wnt pathway inhibitors for CRC prevention and treatment, a number of anti-cancer agents from plants were screened using the TopFlash reporter assay. The TopFlash reporter was transfected into HEK293T cells, and the cells were treated with Wnt3A-conditioned medium in order to activate the luciferase reporter. […] To determine if resveratrol regulates β-catenin degradation, the cells were treated with 25 mM LiCl, which inhibits GSK-3 and stabilizes β-catenin. In this assay, LiCl activated the reporter more strongly than Wnt3A conditioned medium. […]” for “Analyzer.”

COc1cc(/C=C/c2ccc(O)cc2)cc(OC)c1 [pterostilbene, reference compound]
activity relative to resveratrol in Wnt and cell growth assays (LS174 CRC cells; LS174 and other CRC lines): more active than resveratrol
LS174 cell proliferation (LS174 CRC cells; treated for 2d and 4d): inhibited cell proliferation
effect on Wnt signaling (Wnt signaling): inhibits Wnt signaling
